These are yes or no findings as the source states them, for the method shown. Binding seen in cells or lysates may run through a third protein. Some entries that bind do so weakly or less than the wild type.
target: lens epithelium-derived growth factor p75 (LEDGF/p75) (human (endogenous in PC3-DR and DU145-DR)) (UniProt O75475); assay: co-IP; endogenous proteins from whole cell lysates (500 ug, non-denaturing lysis buffer) of PC3-DR and DU145-DR cells; LEDGF/p75 precipitated with human anti-LEDGF/p75 (DFS) autoantibody sera (1:100) and Protein A/G Sepharose, 12 h at 4 °C; partners detected by immunoblot; normal human serum as negative control

Amino acid sequences for entries named in this document (tags omitted).
UniProt O75475: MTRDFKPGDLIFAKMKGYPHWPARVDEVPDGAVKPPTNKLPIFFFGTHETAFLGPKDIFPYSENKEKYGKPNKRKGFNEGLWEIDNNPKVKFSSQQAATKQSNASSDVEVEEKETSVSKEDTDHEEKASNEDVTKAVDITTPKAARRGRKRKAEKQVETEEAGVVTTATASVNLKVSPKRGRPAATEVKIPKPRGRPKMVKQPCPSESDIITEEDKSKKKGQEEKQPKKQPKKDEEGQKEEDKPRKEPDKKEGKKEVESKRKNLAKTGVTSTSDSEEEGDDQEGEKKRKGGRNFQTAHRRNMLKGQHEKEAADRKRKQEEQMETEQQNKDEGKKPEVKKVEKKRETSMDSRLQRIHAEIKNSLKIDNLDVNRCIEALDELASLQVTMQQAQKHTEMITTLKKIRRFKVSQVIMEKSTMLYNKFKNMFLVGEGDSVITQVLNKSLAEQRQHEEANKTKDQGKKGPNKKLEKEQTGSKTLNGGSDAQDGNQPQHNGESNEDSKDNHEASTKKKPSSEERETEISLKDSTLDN
UniProt Q03164: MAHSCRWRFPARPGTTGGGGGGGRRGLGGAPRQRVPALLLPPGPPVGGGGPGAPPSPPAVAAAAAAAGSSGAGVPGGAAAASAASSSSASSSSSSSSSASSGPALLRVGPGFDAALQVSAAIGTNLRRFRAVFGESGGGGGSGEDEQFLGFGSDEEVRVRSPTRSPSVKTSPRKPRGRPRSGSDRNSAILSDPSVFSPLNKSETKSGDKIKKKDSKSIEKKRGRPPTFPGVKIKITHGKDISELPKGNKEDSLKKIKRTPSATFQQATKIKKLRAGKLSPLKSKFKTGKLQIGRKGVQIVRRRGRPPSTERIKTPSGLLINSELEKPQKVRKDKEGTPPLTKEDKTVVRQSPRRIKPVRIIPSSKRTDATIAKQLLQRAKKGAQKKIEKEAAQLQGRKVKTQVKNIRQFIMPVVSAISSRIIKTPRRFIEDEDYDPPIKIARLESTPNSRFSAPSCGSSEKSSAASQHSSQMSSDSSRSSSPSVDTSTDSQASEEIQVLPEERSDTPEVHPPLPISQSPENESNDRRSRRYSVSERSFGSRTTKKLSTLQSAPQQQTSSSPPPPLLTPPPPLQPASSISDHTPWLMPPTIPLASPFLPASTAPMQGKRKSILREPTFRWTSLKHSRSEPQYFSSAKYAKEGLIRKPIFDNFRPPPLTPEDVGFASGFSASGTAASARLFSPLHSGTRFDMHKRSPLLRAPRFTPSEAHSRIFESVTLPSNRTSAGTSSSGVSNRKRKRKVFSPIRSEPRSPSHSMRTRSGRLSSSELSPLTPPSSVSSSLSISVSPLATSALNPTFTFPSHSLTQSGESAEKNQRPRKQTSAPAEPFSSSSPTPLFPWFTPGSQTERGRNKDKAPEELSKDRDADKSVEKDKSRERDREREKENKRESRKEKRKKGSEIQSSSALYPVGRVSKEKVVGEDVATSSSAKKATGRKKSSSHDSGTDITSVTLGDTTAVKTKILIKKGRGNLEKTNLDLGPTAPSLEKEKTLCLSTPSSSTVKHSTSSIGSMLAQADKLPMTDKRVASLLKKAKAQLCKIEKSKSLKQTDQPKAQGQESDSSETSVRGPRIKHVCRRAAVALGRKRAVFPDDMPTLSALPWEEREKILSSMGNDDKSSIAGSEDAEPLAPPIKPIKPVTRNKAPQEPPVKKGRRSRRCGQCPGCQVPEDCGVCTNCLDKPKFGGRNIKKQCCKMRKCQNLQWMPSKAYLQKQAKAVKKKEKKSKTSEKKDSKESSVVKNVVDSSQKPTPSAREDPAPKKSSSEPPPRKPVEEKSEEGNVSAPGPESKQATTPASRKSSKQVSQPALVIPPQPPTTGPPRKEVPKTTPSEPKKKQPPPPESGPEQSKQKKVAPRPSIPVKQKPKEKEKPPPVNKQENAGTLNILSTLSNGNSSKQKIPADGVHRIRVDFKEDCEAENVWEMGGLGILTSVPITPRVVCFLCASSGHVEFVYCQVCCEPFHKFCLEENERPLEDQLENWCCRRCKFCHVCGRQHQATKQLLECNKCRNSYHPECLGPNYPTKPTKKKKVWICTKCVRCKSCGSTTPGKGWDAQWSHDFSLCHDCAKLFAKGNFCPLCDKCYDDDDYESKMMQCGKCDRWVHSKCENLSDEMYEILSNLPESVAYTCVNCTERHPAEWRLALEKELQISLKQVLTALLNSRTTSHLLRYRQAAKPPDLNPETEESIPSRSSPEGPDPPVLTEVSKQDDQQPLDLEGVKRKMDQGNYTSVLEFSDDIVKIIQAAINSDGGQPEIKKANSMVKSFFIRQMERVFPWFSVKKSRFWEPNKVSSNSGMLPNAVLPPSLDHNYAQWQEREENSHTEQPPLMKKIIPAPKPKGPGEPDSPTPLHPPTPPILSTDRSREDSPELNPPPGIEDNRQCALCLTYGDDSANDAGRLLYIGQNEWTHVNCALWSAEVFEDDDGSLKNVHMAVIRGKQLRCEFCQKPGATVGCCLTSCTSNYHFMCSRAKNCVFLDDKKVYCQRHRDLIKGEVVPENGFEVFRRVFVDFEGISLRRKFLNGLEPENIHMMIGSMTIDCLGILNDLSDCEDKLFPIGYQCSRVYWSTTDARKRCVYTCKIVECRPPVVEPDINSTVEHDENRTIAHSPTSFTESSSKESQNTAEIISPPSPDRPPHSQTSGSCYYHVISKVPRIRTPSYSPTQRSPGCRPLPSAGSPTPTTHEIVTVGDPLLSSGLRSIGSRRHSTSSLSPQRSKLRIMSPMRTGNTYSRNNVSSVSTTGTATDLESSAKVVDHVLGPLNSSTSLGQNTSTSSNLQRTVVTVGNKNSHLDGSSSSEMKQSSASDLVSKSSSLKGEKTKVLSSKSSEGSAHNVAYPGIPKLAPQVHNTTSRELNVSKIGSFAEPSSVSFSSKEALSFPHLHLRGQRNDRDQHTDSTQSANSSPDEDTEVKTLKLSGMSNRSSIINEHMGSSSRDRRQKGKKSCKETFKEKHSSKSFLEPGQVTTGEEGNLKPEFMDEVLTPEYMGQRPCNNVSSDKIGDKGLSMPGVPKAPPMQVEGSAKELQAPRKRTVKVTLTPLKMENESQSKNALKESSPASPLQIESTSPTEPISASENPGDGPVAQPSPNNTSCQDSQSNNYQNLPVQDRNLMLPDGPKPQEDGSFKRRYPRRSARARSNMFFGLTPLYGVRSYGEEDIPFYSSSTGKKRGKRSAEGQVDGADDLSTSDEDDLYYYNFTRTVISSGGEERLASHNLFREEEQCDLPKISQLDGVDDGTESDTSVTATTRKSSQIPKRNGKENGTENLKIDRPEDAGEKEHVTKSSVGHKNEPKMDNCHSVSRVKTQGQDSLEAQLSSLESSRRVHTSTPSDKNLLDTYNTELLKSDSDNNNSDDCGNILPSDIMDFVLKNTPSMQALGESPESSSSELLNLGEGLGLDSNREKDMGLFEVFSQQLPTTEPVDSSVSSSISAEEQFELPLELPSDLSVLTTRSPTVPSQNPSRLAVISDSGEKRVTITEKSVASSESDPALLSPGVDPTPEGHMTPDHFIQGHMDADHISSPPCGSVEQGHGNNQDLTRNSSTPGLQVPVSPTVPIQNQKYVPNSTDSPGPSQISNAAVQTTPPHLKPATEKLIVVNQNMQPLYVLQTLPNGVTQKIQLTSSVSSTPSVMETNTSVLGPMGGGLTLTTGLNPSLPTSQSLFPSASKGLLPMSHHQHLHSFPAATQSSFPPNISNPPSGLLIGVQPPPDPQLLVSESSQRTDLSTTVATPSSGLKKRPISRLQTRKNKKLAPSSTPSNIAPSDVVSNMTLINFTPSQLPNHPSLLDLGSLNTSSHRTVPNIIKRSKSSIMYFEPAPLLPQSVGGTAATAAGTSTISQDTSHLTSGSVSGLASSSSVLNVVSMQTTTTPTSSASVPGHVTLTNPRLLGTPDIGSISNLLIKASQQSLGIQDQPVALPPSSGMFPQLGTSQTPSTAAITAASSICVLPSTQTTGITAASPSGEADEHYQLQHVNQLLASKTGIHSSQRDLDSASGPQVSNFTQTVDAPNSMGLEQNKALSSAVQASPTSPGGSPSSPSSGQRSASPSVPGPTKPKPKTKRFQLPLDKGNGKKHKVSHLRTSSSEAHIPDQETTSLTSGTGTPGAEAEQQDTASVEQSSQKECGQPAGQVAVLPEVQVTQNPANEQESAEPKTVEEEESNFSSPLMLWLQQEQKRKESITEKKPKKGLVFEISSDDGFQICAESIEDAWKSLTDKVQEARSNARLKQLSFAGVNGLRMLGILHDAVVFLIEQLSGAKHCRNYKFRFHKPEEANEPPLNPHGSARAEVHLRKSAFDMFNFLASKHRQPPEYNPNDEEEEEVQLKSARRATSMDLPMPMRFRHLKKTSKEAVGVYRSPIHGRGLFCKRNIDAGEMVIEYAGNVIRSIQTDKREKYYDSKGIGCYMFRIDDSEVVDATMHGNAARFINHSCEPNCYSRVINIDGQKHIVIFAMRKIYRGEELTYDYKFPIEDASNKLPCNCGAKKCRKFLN
UniProt Q7Z4V5: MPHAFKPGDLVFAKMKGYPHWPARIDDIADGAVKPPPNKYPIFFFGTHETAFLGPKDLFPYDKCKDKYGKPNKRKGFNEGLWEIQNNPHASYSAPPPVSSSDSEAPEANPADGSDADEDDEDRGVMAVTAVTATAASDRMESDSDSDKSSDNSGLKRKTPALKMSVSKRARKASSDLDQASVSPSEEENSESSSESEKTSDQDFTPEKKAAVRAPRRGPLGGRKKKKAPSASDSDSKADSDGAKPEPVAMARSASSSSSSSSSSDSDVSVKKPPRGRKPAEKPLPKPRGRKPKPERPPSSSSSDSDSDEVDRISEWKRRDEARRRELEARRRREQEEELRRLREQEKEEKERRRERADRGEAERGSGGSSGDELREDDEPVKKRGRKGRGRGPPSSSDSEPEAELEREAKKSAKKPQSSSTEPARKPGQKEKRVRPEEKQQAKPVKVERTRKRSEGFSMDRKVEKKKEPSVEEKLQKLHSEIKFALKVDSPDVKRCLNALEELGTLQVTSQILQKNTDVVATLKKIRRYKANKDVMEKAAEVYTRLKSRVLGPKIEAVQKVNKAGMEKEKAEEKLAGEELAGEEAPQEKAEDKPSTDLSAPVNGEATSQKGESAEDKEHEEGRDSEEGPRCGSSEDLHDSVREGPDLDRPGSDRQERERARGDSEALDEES
UniProt P11387: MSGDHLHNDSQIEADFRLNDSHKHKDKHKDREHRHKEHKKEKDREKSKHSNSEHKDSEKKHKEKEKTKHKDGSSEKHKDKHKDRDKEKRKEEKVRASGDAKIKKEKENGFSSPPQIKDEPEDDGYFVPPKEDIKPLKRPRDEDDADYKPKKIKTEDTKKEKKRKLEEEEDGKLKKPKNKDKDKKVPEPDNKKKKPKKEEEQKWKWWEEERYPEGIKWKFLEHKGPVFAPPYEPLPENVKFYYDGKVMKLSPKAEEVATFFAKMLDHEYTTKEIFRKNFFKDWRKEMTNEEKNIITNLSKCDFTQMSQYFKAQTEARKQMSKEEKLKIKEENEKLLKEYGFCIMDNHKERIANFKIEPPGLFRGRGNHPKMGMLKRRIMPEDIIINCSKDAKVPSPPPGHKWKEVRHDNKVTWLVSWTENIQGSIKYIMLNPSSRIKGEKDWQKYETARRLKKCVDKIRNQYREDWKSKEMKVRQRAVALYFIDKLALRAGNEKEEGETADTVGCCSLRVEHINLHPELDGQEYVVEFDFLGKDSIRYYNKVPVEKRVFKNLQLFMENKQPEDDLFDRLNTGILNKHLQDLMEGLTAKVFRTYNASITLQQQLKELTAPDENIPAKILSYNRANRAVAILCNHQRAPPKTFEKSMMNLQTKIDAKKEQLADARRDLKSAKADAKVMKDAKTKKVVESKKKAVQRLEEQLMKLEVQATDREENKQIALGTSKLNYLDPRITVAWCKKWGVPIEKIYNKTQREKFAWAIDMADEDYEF
UniProt P01106: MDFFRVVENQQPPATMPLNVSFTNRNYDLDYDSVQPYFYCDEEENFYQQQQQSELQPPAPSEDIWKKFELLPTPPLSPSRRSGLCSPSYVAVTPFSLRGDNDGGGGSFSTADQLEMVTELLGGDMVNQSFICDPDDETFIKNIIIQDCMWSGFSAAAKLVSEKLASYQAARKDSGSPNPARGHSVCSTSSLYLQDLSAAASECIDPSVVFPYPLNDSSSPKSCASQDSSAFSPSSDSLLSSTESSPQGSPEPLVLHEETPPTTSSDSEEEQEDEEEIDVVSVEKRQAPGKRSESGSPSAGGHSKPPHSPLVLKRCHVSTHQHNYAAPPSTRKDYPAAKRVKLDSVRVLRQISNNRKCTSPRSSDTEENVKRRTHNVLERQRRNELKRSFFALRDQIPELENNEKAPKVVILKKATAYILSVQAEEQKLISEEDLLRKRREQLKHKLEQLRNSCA

binding	Substance
binds	mixed leukemia lineage histone lysine methyltransferase protein MLL (from UniProt Q03164 1-3969)
binds	HRP2 (from UniProt Q7Z4V5 1-671)
no binding	DNA topoisomerase I (TOPO-1/Scl-70) (from UniProt P11387 1-765)
binds	c-MYC (from UniProt P01106 1-454)

Reference: publication PMC8534522
